Results deposited as PubChem BioAssay AID743121 (NCATS, 2013)

- Aim: 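Partners whose loss is lethal together with topoisomerase I blockade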 (primary screen)
- System: MDA-MB-231 cells, a human breast cancer line
- Knock-down reagent: single siRNA against human genes, 20 nM siRNA (0.8 pmol per well)
- Timing: 120 h (drug added 48 h after transfection, read 72 h later)
- Challenge: camptothecin 20 nM (about EC30) for 72 h; vehicle 0.1% DMSO in parallel plates
- Measurement: 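Cell viability by ATP luminescence (CellTiter-Glo) as % of non-targeting siRNA wells, and the log2 ratio of viability without drug over viability with camptothecin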
- Scale: log2 vehicle/camptothecin viability: higher = stronger sensitisation to camptothecin; viability with camptothecin: higher = more viable cells
- Rule for the call: 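Each gene scored by redundant siRNA activity (RSA) over its individual siRNA ratios; a gene is called active at p < 0.001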
This is an unselected part of about 26,000 reagents. 167 of them (0.63%) count as active. 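Calls are per gene from RSA p-values that are not deposited; an individual active-marked siRNA can sensitise only weakly.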 Unmarked entries are inactive. The numbers tell different reagents against one gene apart. Further read-outs or replicates are left out here.

With knock-down of POFUT1 #1, the screen gave log2 vehicle/camptothecin viability -0.203; viability with camptothecin (% of control) = 112.
POFUT1 #2 scored log2 vehicle/camptothecin viability -0.165; viability with camptothecin (% of control) = 119.
Knock-down of POFUT1 #3 gave: log2 vehicle/camptothecin viability -0.519; viability with camptothecin (% of control) = 61.9.
Depletion of POFUT1 #4 came out at: log2 vehicle/camptothecin viability -0.153; viability with camptothecin (% of control) = 47.8.
Against MDGA1 #1 the deposit lists log2 vehicle/camptothecin viability -0.292; viability with camptothecin (% of control) = 68.
With knock-down of MDGA1 #2, the screen gave log2 vehicle/camptothecin viability -0.1; viability with camptothecin (% of control) = 63.9.
MDGA1 #3 scored log2 vehicle/camptothecin viability -0.225; viability with camptothecin (% of control) = 109.
Knock-down of MDGA1 #4 gave: log2 vehicle/camptothecin viability 0.926; viability with camptothecin (% of control) = 37.6.
After knock-down of CCNK #1 the results were log2 vehicle/camptothecin viability -0.23; viability with camptothecin (% of control) = 45.4.
CCNK #2 scored log2 vehicle/camptothecin viability 0.431; viability with camptothecin (% of control) = 33.
After knock-down of CCNK #3 the results were log2 vehicle/camptothecin viability -0.143; viability with camptothecin (% of control) = 11.4.
For CCNK #4 the deposit lists log2 vehicle/camptothecin viability 0.116; viability with camptothecin (% of control) = 54.9.
Against GNAZ #1, the entry reads log2 vehicle/camptothecin viability 0.165; viability with camptothecin (% of control) = 81.6.
Against GNAZ #2 the deposit lists log2 vehicle/camptothecin viability -0.0383; viability with camptothecin (% of control) = 62.3.
With knock-down of GNAZ #3 the results were log2 vehicle/camptothecin viability -0.0801; viability with camptothecin (% of control) = 80.7.
Knock-down of GNAZ #4 came out at: log2 vehicle/camptothecin viability -0.444; viability with camptothecin (% of control) = 116.

In a second layout: entries from further up
MDGA1 #2
- log2 vehicle/camptothecin viability: -0.1
- viability with camptothecin (% of control): 63.9

MDGA1 #3
- log2 vehicle/camptothecin viability: -0.225
- viability with camptothecin (% of control): 109

MDGA1 #4
- log2 vehicle/camptothecin viability: 0.926
- viability with camptothecin (% of control): 37.6

CCNK #1
- log2 vehicle/camptothecin viability: -0.23
- viability with camptothecin (% of control): 45.4

CCNK #2
- log2 vehicle/camptothecin viability: 0.431
- viability with camptothecin (% of control): 33

Continued:
After knock-down of CYP2C19 #1 the results were log2 vehicle/camptothecin viability 0.21; viability with camptothecin (% of control) = 77.8.
CYP2C19 #2 scored log2 vehicle/camptothecin viability -0.0178; viability with camptothecin (% of control) = 93.
After knock-down of CYP2C19 #3 the results were log2 vehicle/camptothecin viability -0.153; viability with camptothecin (% of control) = 125.
ADGRD1 #1 gave log2 vehicle/camptothecin viability -0.032; viability with camptothecin (% of control) = 106.
Knock-down of ADGRD1 #2 resulted in: log2 vehicle/camptothecin viability -0.306; viability with camptothecin (% of control) = 65.4.
Against ADGRD1 #3 the deposit lists log2 vehicle/camptothecin viability -0.282; viability with camptothecin (% of control) = 66.7.
ADGRD1 #4 showed log2 vehicle/camptothecin viability -0.0569; viability with camptothecin (% of control) = 51.4.
Silencing of SCAP #1 gave: log2 vehicle/camptothecin viability -0.406; viability with camptothecin (% of control) = 75.1.
SCAP #2 scored log2 vehicle/camptothecin viability 0.258; viability with camptothecin (% of control) = 59.7.
SCAP #3 gave log2 vehicle/camptothecin viability 0.425; viability with camptothecin (% of control) = 63.2.
Silencing of SCAP #4 resulted in: log2 vehicle/camptothecin viability -0.277; viability with camptothecin (% of control) = 91.9.
Against FEV #1 the deposit lists log2 vehicle/camptothecin viability -0.15; viability with camptothecin (% of control) = 103.
FEV #2 scored log2 vehicle/camptothecin viability -0.446; viability with camptothecin (% of control) = 91.2.
FEV #3 scored log2 vehicle/camptothecin viability -0.0309; viability with camptothecin (% of control) = 84.9.
FEV #4 showed log2 vehicle/camptothecin viability -0.515; viability with camptothecin (% of control) = 75.2.
Knock-down of WDR5 #1 gave: log2 vehicle/camptothecin viability -0.314; viability with camptothecin (% of control) = 83.6.
After knock-down of WDR5 #2, the screen gave log2 vehicle/camptothecin viability -0.557; viability with camptothecin (% of control) = 98.6.
With knock-down of WDR5 #3, the record shows log2 vehicle/camptothecin viability -0.0344; viability with camptothecin (% of control) = 38.1.
After knock-down of WDR5 #4 the results were log2 vehicle/camptothecin viability -0.498; viability with camptothecin (% of control) = 106.
Knock-down of PGLYRP3 #1 came out at: log2 vehicle/camptothecin viability 0.134; viability with camptothecin (% of control) = 31.9.
PGLYRP3 #2 showed log2 vehicle/camptothecin viability -0.328; viability with camptothecin (% of control) = 76.6.
For PGLYRP3 #3, the values are log2 vehicle/camptothecin viability 0.369; viability with camptothecin (% of control) = 67.7.
Knock-down of PGLYRP3 #4 gave: log2 vehicle/camptothecin viability 0.0149; viability with camptothecin (% of control) = 72.4.
Depletion of STK36 #1 came out at: log2 vehicle/camptothecin viability -0.284; viability with camptothecin (% of control) = 117.
STK36 #2 scored log2 vehicle/camptothecin viability -0.243; viability with camptothecin (% of control) = 87.5.
STK36 #3 showed log2 vehicle/camptothecin viability -0.109; viability with camptothecin (% of control) = 88.5.
STK36 #4 gave log2 vehicle/camptothecin viability -0.145; viability with camptothecin (% of control) = 89.5.
After knock-down of KCNA4 #1, the record shows log2 vehicle/camptothecin viability -0.045; viability with camptothecin (% of control) = 109.
KCNA4 #2 showed log2 vehicle/camptothecin viability 0.00227; viability with camptothecin (% of control) = 50.7.
After knock-down of KCNA4 #3, the record shows log2 vehicle/camptothecin viability -0.341; viability with camptothecin (% of control) = 53.5.
Against KCNA4 #4, the entry reads log2 vehicle/camptothecin viability 0.222; viability with camptothecin (% of control) = 75.3.
